Test results reported in publication PMC10406714.

Amino acid sequences for entries named in this document (tags omitted).
UniProt P25963: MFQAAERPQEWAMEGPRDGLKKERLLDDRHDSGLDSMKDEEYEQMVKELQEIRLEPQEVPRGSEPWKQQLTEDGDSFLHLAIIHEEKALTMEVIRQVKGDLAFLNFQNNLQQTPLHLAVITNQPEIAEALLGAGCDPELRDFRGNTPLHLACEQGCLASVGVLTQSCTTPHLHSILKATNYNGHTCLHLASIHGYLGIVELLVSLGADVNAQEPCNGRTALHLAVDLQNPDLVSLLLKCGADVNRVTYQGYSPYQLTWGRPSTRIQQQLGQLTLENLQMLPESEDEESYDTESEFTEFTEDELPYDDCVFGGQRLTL

Molecular target: T1, FLAG-TRIM64 (human) (UniProt A6NGJ6)
T1 sequence: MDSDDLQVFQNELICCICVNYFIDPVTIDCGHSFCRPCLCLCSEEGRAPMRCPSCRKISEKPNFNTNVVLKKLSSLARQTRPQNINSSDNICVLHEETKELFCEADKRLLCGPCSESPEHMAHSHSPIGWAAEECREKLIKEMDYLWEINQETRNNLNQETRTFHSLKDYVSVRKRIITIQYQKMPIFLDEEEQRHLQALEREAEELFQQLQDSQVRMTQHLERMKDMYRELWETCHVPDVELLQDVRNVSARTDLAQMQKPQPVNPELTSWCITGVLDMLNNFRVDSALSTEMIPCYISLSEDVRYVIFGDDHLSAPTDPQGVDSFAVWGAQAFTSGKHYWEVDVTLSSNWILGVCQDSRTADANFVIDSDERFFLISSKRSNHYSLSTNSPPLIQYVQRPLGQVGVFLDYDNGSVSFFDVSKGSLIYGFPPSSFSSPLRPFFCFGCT
Experiment: affinity purification with mass spectrometry; lysate of 293 T cells stably expressing Flag-TRIM64 (RIPA: 1% Triton X-100, 150 mM NaCl, 20 mM Tris pH 7.5); anti-Flag magnetic beads overnight at 4 °C; eluted with Flag peptide; SDS-PAGE, Coomassie bands excised, in-gel trypsin digestion, LC/MS

- binding: binds
Substance: IκBα (from UniProt P25963 1-317)

Results are given in words; binding and its absence hold for the method and conditions named. Binding seen in cells or lysates may run through a third protein. A yes stands for co-enrichment or nearness to the bait. Other partners may have been found. Sequences can lack the tags named with a protein.
